PubChem BioAssay AID1259405 | NCATS – 2018
Assay: 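Knock-downs that lift recombinant protein yield in hamster ovary cells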 (primary screen). Cells: Chinese hamster CHO-K1 ovary cells with stable secreted eGFP expression. Reagents: single siRNA against mouse genes, 0.8 pmol siRNA per well (2 µl of 400 nM stock). Timing: 3 days. Measured: 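Per-well intracellular GFP measured by laser scanning cytometry, plus viability from ATP luminescence, each relative to plate median of non-targeting control wells, in %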. Scale: GFP, % of control: higher = more GFP per well, higher productivity; viability (ATP), % of control: higher = more viable cells (more ATP). Hit rule: 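a knock-down is called active if GFP reaches 120% or more of non-targeting control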.
Here is a random part of about 50,000 reagents tested. Over the whole deposit, about 4,000 (8%) got an active call. 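Mouse siRNA library applied to hamster cells; one well for each siRNA.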 Entries without a mark were called inactive.

Target gene | PubChem SID | GFP, % of control | viability (ATP), % of control
Ddx5 (DEAD box helicase 5) | SID363569659 | 87.6 | 57.8
Ddx5 (DEAD box helicase 5) | SID363576699 | 70.2 | 63.9
Ddx5 (DEAD box helicase 5) | SID363578107 | 187 (active) | 141
Snhg11 (small nucleolar RNA host gene 11) | SID363542829 | 44.1 | 41.8
Snhg11 (small nucleolar RNA host gene 11) | SID363546346 | 91.4 | 86.1
Snhg11 (small nucleolar RNA host gene 11) | SID363548102 | 102 | 84.4
Casq2 (calsequestrin 2) | SID363582667 | 113 | 112
Casq2 (calsequestrin 2) | SID363584427 | 55.4 | 45
Mettl27 (methyltransferase like 27) | SID363545360 | 64.2 | 61.4
Mettl27 (methyltransferase like 27) | SID363548873 | 91.1 | 76.9
Mettl27 (methyltransferase like 27) | SID363562679 | 48.3 | 65.1
Mthfsd (methenyltetrahydrofolate synthetase domain containing) | SID363541803 | 71 | 112
Mthfsd (methenyltetrahydrofolate synthetase domain containing) | SID363553395 | 55.3 | 80.1
Mthfsd (methenyltetrahydrofolate synthetase domain containing) | SID363566719 | 25.3 | 58.2
C1galt1 | SID363570696 | 117 | 120
C1galt1 | SID363579496 | 60.3 | 118
C1galt1 | SID363583368 | 74.2 | 84.2
Mcpt4 (mast cell protease 4) | SID363547458 | 46.4 | 69.6
Mcpt4 (mast cell protease 4) | SID363558227 | 58 | 59.2
Mcpt4 (mast cell protease 4) | SID363559985 | 99.9 | 110
Adam7 (a disintegrin and metallopeptidase domain 7) | SID363574234 | 69.4 | 67.2
Adam7 (a disintegrin and metallopeptidase domain 7) | SID363575290 | 55.5 | 46.6
Adam7 (a disintegrin and metallopeptidase domain 7) | SID363579866 | 84.2 | 83.2
4933402J07Rik (RIKEN cDNA 4933402J07 gene) | SID363552300 | 152 (active) | 71.2
4933402J07Rik (RIKEN cDNA 4933402J07 gene) | SID363585436 | 95.2 | 111
4933402J07Rik (RIKEN cDNA 4933402J07 gene) | SID363585787 | 169 (active) | 128
Abcc3 (ATP-binding cassette, sub-family C member 3) | SID363574614 | 118 | 114
Abcc3 (ATP-binding cassette, sub-family C member 3) | SID363575670 | 68.4 | 74.9
Abcc3 (ATP-binding cassette, sub-family C member 3) | SID363580246 | 69.3 | 77
Or4f53 (olfactory receptor family 4 subfamily F member 53) | SID363554098 | 110 | 91.8
Or4f53 (olfactory receptor family 4 subfamily F member 53) | SID363567545 | 41.3 | 47.8
Or4f53 (olfactory receptor family 4 subfamily F member 53) | SID363584902 | 65.7 | 92.8
Trim33 (tripartite motif-containing 33) | SID363584507 | 73.5 | 94.2
Trim33 (tripartite motif-containing 33) | SID363589537 | 48.3 | 68.8
Gtf2a2 (general transcription factor II A, 2) | SID363555197 | 66.3 | 64.1
Gtf2a2 (general transcription factor II A, 2) | SID363563858 | 86.8 | 50.9
Gtf2a2 (general transcription factor II A, 2) | SID363587404 | 71.3 | 75.9
Npas4 (neuronal PAS domain protein 4) | SID363562108 | 76.7 | 33.7
Npas4 (neuronal PAS domain protein 4) | SID363567246 | 101 | 86.3
Npas4 (neuronal PAS domain protein 4) | SID363584603 | 53.2 | 42
Lpin1 (lipin 1) | SID363540507 | 57.9 | 62.3
Lpin1 (lipin 1) | SID363542259 | 91.4 | 85.3
Lpin1 (lipin 1) | SID363567175 | 82.5 | 75.3
Kri1 (KRI1 homolog) | SID363546879 | 19.1 | 1.51
Kri1 (KRI1 homolog) | SID363549691 | 72.1 | 81.2
Kri1 (KRI1 homolog) | SID363587745 | 87.1 | 94.2
Sgpp2 (sphingosine-1-phosphate phosphatase 2) | SID363547662 | 135 (active) | 87
Sgpp2 (sphingosine-1-phosphate phosphatase 2) | SID363558431 | 95.6 | 74.9
Sgpp2 (sphingosine-1-phosphate phosphatase 2) | SID363560189 | 77.7 | 79.7
Psmd5 (proteasome (prosome, macropain) 26S subunit, non-ATPase, 5) | SID363555081 | 39 | 43.9
Psmd5 (proteasome (prosome, macropain) 26S subunit, non-ATPase, 5) | SID363568528 | 55.9 | 60.2
Psmd5 (proteasome (prosome, macropain) 26S subunit, non-ATPase, 5) | SID363586587 | 69.2 | 73.2
Scn5a (sodium channel, voltage-gated, type V, alpha) | SID363547736 | 140 (active) | 97.6
Scn5a (sodium channel, voltage-gated, type V, alpha) | SID363558505 | 154 (active) | 95.5
Scn5a (sodium channel, voltage-gated, type V, alpha) | SID363560263 | 79.9 | 92.3
Man2a1 (mannosidase 2, alpha 1) | SID363569982 | 134 (active) | 116
Man2a1 (mannosidase 2, alpha 1) | SID363577022 | 104 | 125
Man2a1 (mannosidase 2, alpha 1) | SID363578430 | 69.6 | 75.2
Lhx9 (LIM homeobox protein 9) | SID363541073 | 61.4 | 50.1
Lhx9 (LIM homeobox protein 9) | SID363555700 | 80.2 | 94.5
Lhx9 (LIM homeobox protein 9) | SID363565989 | 88.1 | 91.8
Or5m3b (olfactory receptor family 5 subfamily M member 3B) | SID363544422 | 88.8 | 73.3
Or5m3b (olfactory receptor family 5 subfamily M member 3B) | SID363550750 | 69.5 | 81.4
Or5m3b (olfactory receptor family 5 subfamily M member 3B) | SID363557299 | 52.3 | 34.5
Exosc4 (exosome component 4) | SID363569699 | 116 | 89.2
Exosc4 (exosome component 4) | SID363576739 | 103 | 88.9
Exosc4 (exosome component 4) | SID363578147 | 53.5 | 39
Apoa1 (apolipoprotein A-I) | SID363574707 | 78.5 | 85.2
Apoa1 (apolipoprotein A-I) | SID363575763 | 110 | 93.3
Apoa1 (apolipoprotein A-I) | SID363580339 | 129 (active) | 61.4
Rims2 (regulating synaptic membrane exocytosis 2) | SID363545177 | 88.9 | 87.4
Rims2 (regulating synaptic membrane exocytosis 2) | SID363548690 | 88 | 76.3
Rims2 (regulating synaptic membrane exocytosis 2) | SID363562496 | 57.1 | 55.7
Tbx4 (T-box 4) | SID363573617 | 116 | 114
Tbx4 (T-box 4) | SID363581361 | 87.7 | 66.8
Tbx4 (T-box 4) | SID363583825 | 68.3 | 76.6
Gm5478 (predicted pseudogene 5478) | SID363541423 | 66.2 | 54.4
Gm5478 (predicted pseudogene 5478) | SID363556050 | 39.3 | 30.5
Gm5478 (predicted pseudogene 5478) | SID363566339 | 74.3 | 83
Or5g9 (olfactory receptor family 5 subfamily G member 9) | SID363544666 | 101 | 86
Or5g9 (olfactory receptor family 5 subfamily G member 9) | SID363550994 | 66.4 | 91
Or5g9 (olfactory receptor family 5 subfamily G member 9) | SID363557543 | 71.8 | 67.6
Tnfrsf22 (tumor necrosis factor receptor superfamily, member 22) | SID363544861 | 98.1 | 80.8
Tnfrsf22 (tumor necrosis factor receptor superfamily, member 22) | SID363551189 | 95.7 | 80.6
Tnfrsf22 (tumor necrosis factor receptor superfamily, member 22) | SID363557738 | 75.8 | 81.1
